The text below walks through data of PMC12040169 (PLOS Biology, 2025).

Some of the results follow.

For this assay, the system named is T1, CTL2-GFP (C. trachomatis L2/434/Bu, GFP-expressing).
T1 construct: L2/434/Bu, GFP-expressing
On the set-up: species or system HeLa; Intracellular C. trachomatis growth in HeLa cells, bulk GFP fluorescence relative to DMSO. To be noted: bulk GFP, single well; 28.5 h, 10 µM; inhibitor.
As to `Cn1nc(C2CCN(C(=O)C3CCCC3)CC2)c2cccnc21` [CBK284899], the “% of control remaining” value is 85.6308%.

Consider `Cc1nc2c(OCC(=O)c3ccc(Cl)cc3Cl)cccn2c1N(C)CC1CC1` [CBK147294], for which the “% of control remaining” value worked out at 131.827%.

As to `O=C(NCC(O)c1ccccc1)c1ccc(Cl)c(S(=O)(=O)N2CCCCC2)c1` (stereo not drawn) [CBK269197], the “% of control remaining” value worked out at 102.39%.

Regarding `COc1ccc(-c2cnc3[nH]c(=O)n(CCN4CCOCC4)c3n2)cc1` [CBK064782], the “% of control remaining” value is on record as 94.3339%.

As for `CC1CCc2n[nH]c(C(=O)N(C)CCc3ccncc3)c2C1` (stereo not drawn) [CBK283195], the “% of control remaining” value is listed as 111.74%.

With `CCN(CC)CCCNC(=O)N1CCN(c2ccc(F)cc2)CC1` [CBK156419], the “% of control remaining” value stood at 195.946%.

With `CC(=O)Nc1ccc(-c2ccc(COC3CCN(C(=O)Cc4ccc(C#N)cc4)CC3)cc2)cc1` [CBK149225], the “% of control remaining” value is 94.1558%.

Turning to `CCOc1ccc(OC(=O)c2cccc(C)c2)cc1` [CBK083575], the “% of control remaining” value is on record as 102.531%.

`CC1CCc2c(sc(NC(=O)c3ccno3)c2C(N)=O)C1` (stereo not drawn) [CBK287752]: the “% of control remaining” value was 98.339%.

With `CCOCCn1c(N2CCCC(C)C2)nc2c1c(=O)[nH]c(=O)n2C` (stereo not drawn) [CBK304304], the “% of control remaining” value is on record as 112.334%.

`Cn1c(NCc2ccco2)nc2c1c(=O)n(Cc1cccc(Br)c1)c(=O)n2C` [CBK268863]: the “% of control remaining” value is 97.6717%.

For the molecule `Cc1nc(CN2CCCC(NCc3ccc(C(N)=O)cc3)C2)no1` (stereo not drawn) [CBK304962], the “% of control remaining” value is given as 89.9055%.

Regarding `CN(C)CC(=O)NC(Cc1ccsc1)c1nccs1` (stereo not drawn) [CBK284801], the “% of control remaining” value was determined as 119.946%.

Consider `COc1ccc2cc(COC(=O)c3cnc(C)cn3)c(Cl)nc2c1` [CBK295288], for which the “% of control remaining” value was 115.356%.

For `CC(=O)Nc1nnc(-c2ccc(Cl)cc2)s1` [CBK287331], the “% of control remaining” value was 122.866%.

Take `Cc1cc(-c2nnc(SCC(=O)N3CCOCC3)o2)no1` [CBK268984]: the “% of control remaining” value amounted to 70.1817%.

As to `Cc1ccc(NS(=O)(=O)c2cccs2)cc1` [CBK045362], the “% of control remaining” value was determined as 163.404%.

For the molecule `CC(C)C(=O)NC(=S)Nc1ccc2oc(-c3ccncc3)nc2c1` [CBK269702], the “% of control remaining” value is on record as 139.066%.

For `CCCc1n[nH]c(C2CC2)c1C(=O)OCC` [CBK115714], the “% of control remaining” value is recorded as 112.633%.

Turning to `CCCN1CC(NS(=O)(=O)c2ccc3oc(=O)n(C)c3c2)CC1=O` (stereo not drawn) [CBK307664], the “% of control remaining” value was found to be 106.641%.

`c1ccc(N2CCN(c3cncc(-c4cccs4)n3)CC2)nc1` [CBK065502]: the “% of control remaining” value worked out at 121.374%.

Regarding `O=C(c1cccnc1)N1CCN(CCN2C(=O)C3C4C=CC(C4)C3C2=O)CC1` (stereo not drawn) [CBK263639], the “% of control remaining” value was 100%.

Regarding `O=[N+]([O-])c1ccc(S(=O)(=O)N2CCN(S(=O)(=O)c3ccc(Cl)cc3)CC2)cc1` [CBK264312], the “% of control remaining” value came to 122.578%.

Consider `CS(=O)(=O)c1ccccc1S(=O)(=O)N1CCN(c2nc3ccccc3s2)CC1` [CBK269468], for which the “% of control remaining” value is recorded as 120.53%.

On to `NC(C(=O)O)C(O)c1ccccc1[N+](=O)[O-]` (stereo not drawn) [CBK262389], for which the “% of control remaining” value turned out to be 100%.

In the case of `FC(F)(F)c1ccc(OCCN2CCOCC2)nc1` [CBK113461], the “% of control remaining” value amounted to 71.4439%.

Take `Cn1cnc2cc(NCc3cc(-c4ccc(F)cc4)c[nH]c3=O)ccc21` [CBK284693]: the “% of control remaining” value is 117.878%.

Consider `COC(=O)c1c(NC(=S)Nc2ccn(C)n2)sc2c1CCCCC2` [CBK266888], for which the “% of control remaining” value was determined as 101.038%.

In the case of `CN(C(=O)Cc1ccccc1)c1ccccc1` [CBK012581], the “% of control remaining” value is listed as 102.622%.

For the molecule `O=C(NCCN1CCCC1)c1cnc2cc(C(F)(F)F)ccc2c1O` [CBK107426], the “% of control remaining” value amounted to 141.571%.

`O=C(CN(c1ccccc1)S(=O)(=O)c1ccccc1)N1CCN(Cc2ccc3c(c2)OCO3)CC1` [CBK265290]: the “% of control remaining” value is recorded as 124.872%.

Turning to `CCC(=O)N1CCC2(C/C=C/CC(=O)Nc3cccc(n3)C3CN(CCO3)C(=O)CN(C)C2=O)CC1` (stereo not drawn) [CBK292004], the “% of control remaining” value came to 138.428%.

For the molecule `COc1ccccc1-c1nccnc1N1CCCC1CO` (stereo not drawn) [CBK036735], the “% of control remaining” value came to 151.634%.

Regarding `Cc1ccc(-c2noc(CN3CCN(c4ccccn4)CC3)n2)cc1` [CBK266457], the “% of control remaining” value is on record as 138.493%.

On to `CC(=O)NCC(CN1CCOCC1)([N+](=O)[O-])[N+](=O)[O-]` [CBK261337], for which the “% of control remaining” value amounted to 116.443%.

In the case of `CN(Cc1nc2ccccc2c(=O)[nH]1)Cc1cc2c(cc1Br)OCCO2` [CBK296715], the “% of control remaining” value is 90.9001%.

`NC1=C(c2nc3ccccc3s2)C(=O)CN1CCCN1CCOCC1` [CBK265925]: the “% of control remaining” value came out at 229.638%.

For the molecule `c1cncc(-c2nccnc2NCCCN2CCOCC2)c1` [CBK037286], the “% of control remaining” value was 122.64%.

As for `CC(C)c1nccn1CCCn1cncc1-c1cnn(C)c1` [CBK281812], the “% of control remaining” value came out at 141.992%.

On to `CC(=O)Nc1ccc(-c2nc[nH]c2Br)cc1` [CBK019063], for which the “% of control remaining” value came out at 98.2107%.

On to `CCN(CC)C(=O)CCc1nc2sc3c(c2c(=O)[nH]1)CCCC3` [CBK305069], for which the “% of control remaining” value stood at 130.008%.

`CCn1c(C(C)NC2CCN(CC(=O)OC)CC2)nc2ccccc21` (stereo not drawn) [CBK305396]: the “% of control remaining” value is on record as 82.456%.

Turning to `Cc1cc(SCc2ccc(Cl)cc2)nc(=O)[nH]1` [CBK287719], the “% of control remaining” value amounted to 106.244%.

Regarding `COC(=O)Nc1ccc(S(=O)(=O)N2CCCC(C(=O)O)C2)cc1` (stereo not drawn) [CBK265364], the “% of control remaining” value was determined as 116.422%.

Turning to `Cc1cc(NC(=O)C(=O)NCCCN2CCOCC2)ccc1Br` [CBK268046], the “% of control remaining” value is 141.815%.

Consider `Cc1cc(O)c(-c2n[nH]c3c2C(c2ccccc2F)N(Cc2cccnc2)C3=O)cc1C` (stereo not drawn) [CBK268831], for which the “% of control remaining” value is given as 185.297%.

`COc1ccccc1CCNC(=O)c1ncoc1-c1cccs1` [CBK282394]: the “% of control remaining” value was 128.538%.

On to `COC(=O)c1ccc(S(=O)(=O)N2CCC(C)CC2)cc1` [CBK070414], for which the “% of control remaining” value is reported as 92.2565%.

In the case of `O=C(O)c1ccc(-c2n[nH]c(=O)c3ccccc23)cc1` [CBK287148], the “% of control remaining” value is recorded as 111.674%.

As for `Clc1cccc(-c2cncc(N3CCN(c4ccncc4)CC3)n2)c1` [CBK066099], the “% of control remaining” value amounted to 141.959%.

In the case of `COc1ccc([C@@]23CC[C@@H](NC(=O)Nc4ccc(C(C)(C)C)cc4)C[C@@H]2N(C)CC3)cc1OC` [CBK036469T], the “% of control remaining” value was 103.458%.
